One molecule from publication PMC10178769, “A Facile Synthesis and Molecular Characterization of Certain New Anti-Proliferative Indole-Based Chemical Entities” (International Journal of Molecular Sciences, 2023) can be followed below.

Holding throughout (assay type): cell-based
The test system of data set [1] is MCF-7 breast cancer cells. The data set can be described thus: MTT assay, antiproliferative activity, MCF-7. The settings on record: Homo sapiens, MCF7, 48 h, read-out: Cytotoxicity IC50 MCF7. As for the experimental part: (§1) The title compounds 4a–q were subjected to MTT assay to determine their cytotoxicity, and their in vitro antiproliferative activity was examined as well. The cancer cell growth inhibitory activity of the synthesized compound was tested against three human cancer cell lines, namely, breast cancer (MCF-7), colon cancer (HCT116) and lung cancer (A549), as well as non-tumorigenic human lung cell line (WI38) to estimate the selectivity for tumor cells. Staurosporine was used as a reference drug.
(§2) Anti-proliferative activity in compounds 4a–q were tested in three cancerous cell lines (MCF-7 breast cancer cells, A549 lung carcinoma, HCT human colon cancer cells) and in WI-38 human lung fibroblast cells. Cells were plated at a density of 1.2–1.8 × 10,000 cells/well in a volume of 100 µL complete growth medium and were incubated at 37 °C for 24 h. Cells were then treated with serially diluted tested compound and incubated at 37 °C for 48 h. Twenty microliters of 3-(4,5-dimethylthiazol-2-yl)-2,5-diphenyltetrazolium bromide (MTT) (2.5 mg/mL) dissolved in PBS were added to the cells and cells were further incubated for 4 h at 37 °C. […] The absorbance was detected at 540 nm using a Spectramax 250 microplate reader (Molecular device, San Jose, CA, USA), and viability (%) was calculated as [optical density (OD) of treated group/OD of control group] × 100.

Data set [2] deals with HCT116 colon cancer cells. The data set can be described thus: MTT assay, antiproliferative activity, HCT116. The settings on record: Homo sapiens, HCT-116, 48 h, read-out: Cytotoxicity IC50 HCT116. The protocol: as §1, §2
For data set [3], the system named is A549 lung carcinoma cells. The data set can be described thus: MTT assay, antiproliferative activity, A549. The settings on record: Homo sapiens, A549, 48 h, read-out: Cytotoxicity IC50 A549. As for the experimental part:
as §1, §2

Data set [4] in a line: MTT assay, toxicity on normal cells WI38. The settings on record: human. As for the experimental part: as §1, §2

As for `CN[C@@H]1C[C@H]2O[C@@](C)([C@@H]1OC)n1c3ccccc3c3c4c(c5c6ccccc6n2c5c31)C(=O)NC4` [Staurosporine, reference compound], the IC50 in data set [1] stood at 11.1 ± 0.53 µM; in data set [2] it was 7.02 ± 0.34 µM; in data set [3] it was 8.42 ± 0.46 µM; in data set [4] it was 28.5 ± 1.62 µM.
